Publication PMC12649893
These are yes or no findings as the source states them, for the method shown.

By UniProt entry, the sequences of proteins in these tests, tags left out. Where a name states a change or a piece, a line headed by the entry shows the natural chain unless it says otherwise. Chains listed by the source or under a name are the forms on record and can include a tag or linker. Residues count along the entry.
Receptor FcγRIIIa-176V extracellular domain (P08637, form named): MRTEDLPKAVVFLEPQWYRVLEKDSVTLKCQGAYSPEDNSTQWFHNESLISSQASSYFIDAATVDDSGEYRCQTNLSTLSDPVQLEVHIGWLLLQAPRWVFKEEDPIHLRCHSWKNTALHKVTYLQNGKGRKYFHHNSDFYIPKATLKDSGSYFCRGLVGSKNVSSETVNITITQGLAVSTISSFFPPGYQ
UniProt P12314, residues 16-292: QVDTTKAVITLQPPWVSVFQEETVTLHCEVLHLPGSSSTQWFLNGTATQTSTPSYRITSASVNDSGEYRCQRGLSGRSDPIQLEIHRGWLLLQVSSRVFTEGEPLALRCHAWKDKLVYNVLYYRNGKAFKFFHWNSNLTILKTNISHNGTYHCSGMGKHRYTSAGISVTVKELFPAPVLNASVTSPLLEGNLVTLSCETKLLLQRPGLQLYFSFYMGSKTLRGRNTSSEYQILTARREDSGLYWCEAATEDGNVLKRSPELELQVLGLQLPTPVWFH

What was measured:
[1] = biological target: Receptor FcγRIIIa-176V extracellular domain (UniProt P08637); experiment: BLI; controls for non-specific interactions: antigens on sensors loaded with Fc receptors without antibodies; both purified
[2] = biological target: Receptor FcγRIa extracellular domain (UniProt P12314); experiment: as above

B1: Triggering receptor expressed on myeloid cells 2 (TREM-2) extracellular fragment (domain or fragment, UniProt Q9NZC2-1 19-174)
chain: HNTTVFQGVAGQSLQVSCPYDSMKHWGRRKAWCRQLGEKGPCQRVVSTHNLWLLSFLRRWNGSTAITDDTLGGTLTITLRNLQPHDAGLYQCQSLHGSEADTLRKVLVEVLADPLDHRDAGDLWFPGESESFEDAHVEHSISRSLLEGEIPFPPTS
B1 was tested, and the binding [1] was “no binding” and the binding [2] was “no binding”.
